{
  "sequences": {"note": "Protein sequences, listed by entry. Tags and fused reporters are not part of them.", "UniProt Q9T091": "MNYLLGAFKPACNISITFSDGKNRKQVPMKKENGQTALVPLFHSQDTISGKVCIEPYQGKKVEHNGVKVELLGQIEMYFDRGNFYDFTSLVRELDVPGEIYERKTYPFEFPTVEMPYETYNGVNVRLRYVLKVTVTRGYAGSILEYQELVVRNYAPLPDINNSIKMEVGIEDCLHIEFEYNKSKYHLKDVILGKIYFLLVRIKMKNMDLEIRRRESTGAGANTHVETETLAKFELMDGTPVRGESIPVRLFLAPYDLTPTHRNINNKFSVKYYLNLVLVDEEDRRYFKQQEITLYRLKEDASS", "UniProt P29514": "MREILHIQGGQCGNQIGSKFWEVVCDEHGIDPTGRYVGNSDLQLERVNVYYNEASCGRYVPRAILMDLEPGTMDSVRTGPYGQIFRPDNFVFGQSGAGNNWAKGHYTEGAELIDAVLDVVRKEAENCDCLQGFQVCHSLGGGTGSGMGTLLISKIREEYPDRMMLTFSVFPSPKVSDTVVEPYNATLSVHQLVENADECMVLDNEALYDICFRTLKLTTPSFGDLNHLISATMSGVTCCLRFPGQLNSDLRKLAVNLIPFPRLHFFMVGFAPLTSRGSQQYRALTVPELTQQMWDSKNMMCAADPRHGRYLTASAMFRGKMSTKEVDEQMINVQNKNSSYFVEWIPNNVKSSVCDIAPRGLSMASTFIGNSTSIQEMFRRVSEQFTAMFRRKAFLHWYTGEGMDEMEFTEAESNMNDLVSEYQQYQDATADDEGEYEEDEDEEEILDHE"},
  "source": "paper doi:10.1101/2022.08.08.503215",
  "target": "T1, CDKD;3:YFP (Arabidopsis thaliana) (UniProt Q9LMT0)",
  "T1 sequence": "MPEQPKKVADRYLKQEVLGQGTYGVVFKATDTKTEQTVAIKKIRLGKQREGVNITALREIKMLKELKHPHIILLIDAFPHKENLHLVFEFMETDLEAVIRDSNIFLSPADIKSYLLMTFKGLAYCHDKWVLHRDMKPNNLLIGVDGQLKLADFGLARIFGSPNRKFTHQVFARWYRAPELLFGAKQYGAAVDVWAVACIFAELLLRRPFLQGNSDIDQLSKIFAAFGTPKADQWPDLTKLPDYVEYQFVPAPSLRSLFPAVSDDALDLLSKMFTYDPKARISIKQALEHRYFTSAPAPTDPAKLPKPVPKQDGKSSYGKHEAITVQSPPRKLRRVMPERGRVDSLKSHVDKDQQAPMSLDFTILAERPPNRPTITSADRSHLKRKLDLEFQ",
  "test": "affinity purification with mass spectrometry",
  "note": "These are yes or no findings as the source states them, for the method shown. Binding seen in cells or lysates may run through a third protein. These calls come from enrichment with a bait or labelling near it, and not all partners need be listed. Tags and fused reporters may be left off the sequences shown.",
  "data": [
    {"molecule": "VACUOLAR PROTEIN SORTING-ASSOCIATED PROTEIN 26B (from UniProt Q9T091 1-303)", "values": [
      {"measurement": "binding", "value": "binds"}
    ]},
    {"molecule": "TUBULIN BETA-6 (from UniProt P29514 1-449)", "values": [
      {"measurement": "binding", "value": "binds"}
    ]},
    {"molecule": "CDKD;2 (enzyme, UniProt Q9C9M7 1-348) MSKSGDNQPVDRYLRRQILGEGTYGVVYKATDTKTGKTVAVKKIRLGNQKEGVNFTALREIKLLKELNHPHIVELIDAFPHDGSLHLVFEYMQTDLEAVIRDRNIFLSPGDIKSYMLMTLKGLAYCHKKWVLHRDMKPNNLLIGENGLLKLADFGLARLFGSPNRRFTHQVFATWYRAPELLFGSRQYGAGVDVWAAGCIFAELLLRRPFLPGSTEIDQLGKIFQAFGTPVPSQWSDMIYLPDYMEFSYTPAPPLRTIFPMASDDALDLLAKMFIYDPRQRITIQQALDHRYFSSSPSPTEPGKLQIPASKGDALEPKASEQNQHGNSPAVLSPPGKMRRVMGPEGFT", "values": [
      {"measurement": "binding", "value": "binds"}
    ]},
    {"molecule": "cyclin H (protein, UniProt Q8W5S1 1-336) MADFQTSTQRAKWIFTPQKLAERYKAANQRAVQMLEKCGTTQVEVDASGSLTYPKDKVGSGDQADKKLKPLSADEERFMRAFYEAKVQEVCSAFAFPHKIQATALQYFKRFYLQWSVMQHHPKEIMLTCVYAACKIEENHVSAEEIGKGINQDHRIILKYEMAVLQSLEFDLIVYAPYRAIEGFVNNMEEFLQARDDEIQKLESLLKGATAEADKVMLTDAPLLFPPGQLALASLRIANGVLGVIDFDRYLENIVSQPNSEHTTSELTKLLDNIEYLVKNYKCPSEKDMKHINRKLKSCLGHSSSHDESKKREKRSKHKSHRSSNDTPNGAPPPIG", "values": [
      {"measurement": "binding", "value": "binds"}
    ]},
    {"molecule": "COATOMER SUBUNIT BETA-3 (protein, UniProt Q8L828 1-909) MPLRLDIKRKFAQRSERVKSVDLHPTEPWILASLYSGTVCIWNYQTQTITKSFEVTELPVRSAKFIPRKQWVVAGADDMYIRVYNYNTMDKVKVFEAHSDYIRCVAVHPTLPYVLSSSDDMLIKLWDWENGWACTQIFEGHSHYVMQVVFNPKDTNTFASASLDRTIKIWNLGSPDPNFTLDAHQKGVNCVDYFTGGDKPYLITGSDDHTAKVWDYQTKSCVQTLDGHTHNVSAVCFHPELPIIITGSEDGTVRIWHATTYRLENTLNYGLERVWAIGYIKSSRRVVIGYDEGTIMVKLGREIPVASMDSSGKIIWAKHNEIQTANIKSIGAGYEATDGERLPLSVKELGTCDLYPQSLKHNPNGRFVVVCGDGEYIIYTALAWRNRSFGSGLEFVWSSEGECAVRESSSKIKIFSKNFQERKSIRPTFSAEKIFGGTLLAMCSNDFICFYDWAECRLIQQIDVTVKNLYWAESGDLVAIASDTSFYILKYNRELVSSHFDSGRPTDEEGVEDAFEVLHENDERVRTGIWVGDCFIYNNSSWKLNYCVGGEVTTMYHLDRPMYLLGYIANQSRVYLVDKEFNVIGYTLLLSLIEYKTLVMRGDLDRANQILPTIPKEQHNNVAHFLESRGMIEDALEIATDPDYKFDLAIQLGRLEIAKEIAEEVQSESKWKQLGELAMSSGKLQLAEDCMKYAMDLSGLLLLYSSLGDAEGVSKLACLAKEQGKNNVAFLCLFTLGRLEDCLQLLVESNRIPEAALMARSYLPSKVSEIVALWREDLSKVNPKAAESLADPEEYSNLFEDWQVALSVEANTAETRGVYTAAENYPSHADKPSITLVEAFRNLQVEAEESLENGNIDHEVAEENGHVENEGDEEEQQEEEVNEEEGVVDADSTDGAVLVNGSEVLTPHP", "values": [
      {"measurement": "binding", "value": "binds"}
    ]}
  ]
}
